From PMC13015889
No constants are given. Whether binding was seen depends on the method and setting. Binding seen in cells or lysates may run through a third protein. A result given as binding can be weak or reduced; the word gives no strength. For some assays here: Where a sequence is shown, tags or fusion partners need not be part of it. Values belong to the binder of their own block, whether it stands above or below them.

Experiments:
[1] = molecular target: PICALM4A (co-IP with ERL1) (Arabidopsis thaliana); assay: co-IP; ERL1 with PICALM4A, in vivo (fig. S7B); constructs and direction not told in the text shown
[2] = molecular target: PICALM4A-red fluorescent protein (RFP) (Arabidopsis thaliana); assay: co-IP; 6-day-old transgenic Arabidopsis seedlings expressing ERECTA-FLAG and PICALM4A-RFP under native promoters; α-RFP immunoprecipitation (RFP-Trap magnetic agarose), 4°C 1 hour, 150 mM NaCl, 1% Triton X-100
[3] = molecular target: PICALM4A-GFP (pYBA-1132) (Arabidopsis thaliana); assay: co-IP; transient expression in Arabidopsis protoplasts; RFP-Trap or GFP-Trap magnetic agarose as the methods say, 4°C 1 hour, 150 mM NaCl, 1% Triton X-100
[4] = molecular target: PICALM4B-GFP (pYBA-1132) (Arabidopsis thaliana); assay: as above
[5] = molecular target: PICALM3-GFP (pYBA-1132) (Arabidopsis thaliana); assay: as above

binding [1]: binds
B1: ERECTA-LIKE1 (ERL1) (receptor, UniProt C0LGW6 26-966)
chain: MNNEGKALMAIKGSFSNLVNMLLDWDDVHNSDLCSWRGVFCDNVSYSVVSLNLSSLNLGGEISPAIGDLRNLQSIDLQGNKLAGQIPDEIGNCASLVYLDLSENLLYGDIPFSISKLKQLETLNLKNNQLTGPVPATLTQIPNLKRLDLAGNHLTGEISRLLYWNEVLQYLGLRGNMLTGTLSSDMCQLTGLWYFDVRGNNLTGTIPESIGNCTSFQILDISYNQITGEIPYNIGFLQVATLSLQGNRLTGRIPEVIGLMQALAVLDLSDNELVGPIPPILGNLSFTGKLYLHGNMLTGPIPSELGNMSRLSYLQLNDNKLVGTIPPELGKLEQLFELNLANNRLVGPIPSNISSCAALNQFNVHGNLLSGSIPLAFRNLGSLTYLNLSSNNFKGKIPVELGHIINLDKLDLSGNNFSGSIPLTLGDLEHLLILNLSRNHLSGQLPAEFGNLRSIQMIDVSFNLLSGVIPTELGQLQNLNSLILNNNKLHGKIPDQLTNCFTLVNLNVSFNNLSGIVPPMKNFSRFAPASFVGNPYLCGNWVGSICGPLPKSRVFSRGALICIVLGVITLLCMIFLAVYKSMQQKKILQGSSKQAEGLTKLVILHMDMAIHTFDDIMRVTENLNEKFIIGYGASSTVYKCALKSSRPIAIKRLYNQYPHNLREFETELETIGSIRHRNIVSLHGYALSPTGNLLFYDYMENGSLWDLLHGSLKKVKLDWETRLKIAVGAAQGLAYLHHDCTPRIIHRDIKSSNILLDENFEAHLSDFGIAKSIPASKTHASTYVLGTIGYIDPEYARTSRINEKSDIYSFGIVLLELLTGKKAVDNEANLHQLILSKADDNTVMEAVDPEVTVTCMDLGHIRKTFQLALLCTKRNPLERPTMLEVSRVLLSLVPSLQVAKKLPSLDHSTKKLQQENEVRNPDAEASQWFVQFREVISKSSI

binding [2]: binds
B2: ERECTA-FLAG (receptor, UniProt Q42371 25-976)
chain: EEGATLLEIKKSFKDVNNVLYDWTTSPSSDYCVWRGVSCENVTFNVVALNLSDLNLDGEISPAIGDLKSLLSIDLRGNRLSGQIPDEIGDCSSLQNLDLSFNELSGDIPFSISKLKQLEQLILKNNQLIGPIPSTLSQIPNLKILDLAQNKLSGEIPRLIYWNEVLQYLGLRGNNLVGNISPDLCQLTGLWYFDVRNNSLTGSIPETIGNCTAFQVLDLSYNQLTGEIPFDIGFLQVATLSLQGNQLSGKIPSVIGLMQALAVLDLSGNLLSGSIPPILGNLTFTEKLYLHSNKLTGSIPPELGNMSKLHYLELNDNHLTGHIPPELGKLTDLFDLNVANNDLEGPIPDHLSSCTNLNSLNVHGNKFSGTIPRAFQKLESMTYLNLSSNNIKGPIPVELSRIGNLDTLDLSNNKINGIIPSSLGDLEHLLKMNLSRNHITGVVPGDFGNLRSIMEIDLSNNDISGPIPEELNQLQNIILLRLENNNLTGNVGSLANCLSLTVLNVSHNNLVGDIPKNNNFSRFSPDSFIGNPGLCGSWLNSPCHDSRRTVRVSISRAAILGIAIGGLVILLMVLIAACRPHNPPPFLDGSLDKPVTYSTPKLVILHMNMALHVYEDIMRMTENLSEKYIIGHGASSTVYKCVLKNCKPVAIKRLYSHNPQSMKQFETELEMLSSIKHRNLVSLQAYSLSHLGSLLFYDYLENGSLWDLLHGPTKKKTLDWDTRLKIAYGAAQGLAYLHHDCSPRIIHRDVKSSNILLDKDLEARLTDFGIAKSLCVSKSHTSTYVMGTIGYIDPEYARTSRLTEKSDVYSYGIVLLELLTRRKAVDDESNLHHLIMSKTGNNEVMEMADPDITSTCKDLGVVKKVFQLALLCTKRQPNDRPTMHQVTRVLGSFMLSEQPPAATDTSATLAGSCYVDEYANLKTPHSVNCSSMSASDAQLFLRFGQVISQNSE

binding [3]: binds
binding [4]: binds
binding [5]: binds
B3: ERECTA-2xHA (pHBT-2xHA) (receptor, UniProt Q42371 25-976)
chain: B2 chain
